Source: patent publication US20210169911A1, “PURINE AND PYRIMIDINE NUCLEOTIDES AS ECTO-5'-NUCLEOTIDASE INHIBITORS” (The United States of America,as represented by the …, priority 2018, published 2021)
Some of these results come from one statement about several compounds together. Some compounds share one range, which may span the group rather than tell each member.

Tested on: recombinant soluble human CD73
Assay: Radiometric CD73 inhibition assay, recombinant soluble human CD73
Format: biochemical
Details: human vs rat CD73 Ki, Table 5
Protocol: The cDNA for the soluble human CD73 (Genbank accession no. NM_002526) was obtained from Prof. Dr. Norbert Sträter (University of Leipzig, Germany) (3). […] Sf9 insect cells were grown in Insect-[…] media (#: BE12-[…], Lonza, Switzerland) with 10 mg/l gentamicin and split at a ratio of 1:3 every fourth day. For transfection, cells were seeded into cell culture flasks (25 cm^2) at 60-70% confluence. 100 μl of cell medium and 1 μl of the vector DNA (1000 ng/μ1) were mixed with 2.5 μl of baculovirus genomic ProEasyTM vector DNA (AB vector, CA, USA) and combined with premixed 100 μl of cell medium and 8 μl of CellfectinTM II Reagent (Thermo Fisher Scientific, MA, USA). […] The cells were incubated for 30 min at rt, and for further 4 days at 27° C. Cells from the transfection procedure were detached from the bottom of the flasks and centrifuged for 5 min at 2000 g. 1.5 ml of the supernatant (viral stock) was added to 75 cm^2 cell culture flasks containing Sf9 cells (60-70% confluence), and the cells were incubated for four days at 27° C. Then 1.5 ml of the supernatant were taken and added to uninfected Sf9 cells in a 75 cm^2 flask. This was repeated five more times, using more cells and larger flasks after the third round of infections (150 cm^2 to which 3.0 ml of supernatant were added). The stock P8 was finally used for infection of the cells. For protein expression, 3 ml of the virus solution were used to infect 150 ml of cell media containing 2×10^6 cells/ml in a 500 ml Erlenmeyer flask, and they were incubated for 4 days at 27° C. with shaking (150 rpm). Then, cell suspensions were transferred to 50 ml falcon tubes and centrifuged at 15 min at 5000 g at 4° C. The supernatants were subjected to ultrafiltration using Amicon® Ultra-15, 10 kDa cut-off (Merck Millipore, MA, USA) at 5000 g for 15-30 min at 4° C. The concentrated protein was purified with HisPurTM Ni^2+-NTA spin columns (#: 88226, Thermo Fisher Scientific, MA, USA). […]

| SMILES | potency at human CD73 as compared to the rat enzyme [fold] |
| --- | --- |
| O=c1[nH]c(=O)n([C@@H]2O[C@H](COP(=O)(O)CP(=O)(O)O)C(O)C2O)cc1F (stereo partly drawn) [Compound 4l, 5-Fluorouridine-5′-O-[(phosphonomethyl)phosphonic acid]] | 2 to 3 |
| O=c1[nH]/c(=N\OCc2ccc(C(F)(F)F)cc2)ccn1[C@@H]1O[C@H](COP(=O)(O)CP(=O)(O)O)[C@@H](O)[C@H]1O [Compound 9d, N^4-[O-(4-Trifluoromethylbenzyloxy)]-cytidine-5′-O-[(phosphonomethyl)phosphonic acid]] | 2 to 3 |
| O=c1[nH]c(=NOCc2ccc3ccccc3c2)ccn1C1OC(COP(=O)(O)CP(=O)(O)O)C(O)C1O (stereo not drawn) [Compound 9e, N^4-[O-(Naphthalen-2-ylmethoxy)]-cytidine-5′-O-[(phosphonomethyl)phosphonic acid]] | 2 to 3 |
